Results: publication PMC8673676
No constants are given. Whether binding was seen depends on the method and setting. For part of these data: In cells and extracts the contact can be indirect. Some binding calls cover weakened binding; strength is not graded here. For part of these data: Tags and fused reporters may be left off the sequences shown. Values belong to the binder of their own block, whether it stands above or below them.

Tests used:
[1] = target: T1, Booster for Crq (Bfc), yeast two-hybrid bait (Drosophila melanogaster) (UniProt Q9W0I5); assay: two-hybrid; Bfc as bait, Srp as prey; AH109 yeast; dilutions grown on SD-Trp-Leu-His plates, 3 d at 30°C
T1 sequence: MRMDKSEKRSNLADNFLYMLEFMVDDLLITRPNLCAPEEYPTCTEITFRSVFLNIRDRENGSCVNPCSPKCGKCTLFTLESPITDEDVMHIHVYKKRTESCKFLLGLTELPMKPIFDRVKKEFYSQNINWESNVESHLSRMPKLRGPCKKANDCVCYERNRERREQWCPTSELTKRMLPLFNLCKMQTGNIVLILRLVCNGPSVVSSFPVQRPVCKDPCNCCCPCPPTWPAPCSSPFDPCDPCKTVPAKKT

[2] = target: T2, Bfc-Flag (Drosophila melanogaster) (UniProt Q9W0I5); assay: co-IP; S2 cells co-transfected with Bfc-Flag and HA-Srp; lysis in 50 mM Tris-Cl pH 7.4, 1% Triton X-100, 0.15 M NaCl, 1 mM EDTA; anti-Flag M2 magnetic beads 2 h at 4°C; blots with anti-Flag and anti-HA
T2 sequence: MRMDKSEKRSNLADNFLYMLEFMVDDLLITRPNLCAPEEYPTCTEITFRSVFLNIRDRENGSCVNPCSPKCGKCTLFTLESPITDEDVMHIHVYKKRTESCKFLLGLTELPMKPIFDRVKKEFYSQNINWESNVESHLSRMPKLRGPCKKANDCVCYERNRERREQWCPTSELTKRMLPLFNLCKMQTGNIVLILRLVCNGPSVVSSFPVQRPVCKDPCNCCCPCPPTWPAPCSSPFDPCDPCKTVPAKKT

[3] = target: T3, GST-Srp (Drosophila melanogaster) (UniProt P52172); assay: native gel or EMSA; purified GST-Srp bound to biotin-labelled crq promoter probe; supershift on addition of purified Bfc-6XHis (1, 2 and 4 μg); LightShift Chemiluminescent EMSA Kit; both purified
T3 sequence: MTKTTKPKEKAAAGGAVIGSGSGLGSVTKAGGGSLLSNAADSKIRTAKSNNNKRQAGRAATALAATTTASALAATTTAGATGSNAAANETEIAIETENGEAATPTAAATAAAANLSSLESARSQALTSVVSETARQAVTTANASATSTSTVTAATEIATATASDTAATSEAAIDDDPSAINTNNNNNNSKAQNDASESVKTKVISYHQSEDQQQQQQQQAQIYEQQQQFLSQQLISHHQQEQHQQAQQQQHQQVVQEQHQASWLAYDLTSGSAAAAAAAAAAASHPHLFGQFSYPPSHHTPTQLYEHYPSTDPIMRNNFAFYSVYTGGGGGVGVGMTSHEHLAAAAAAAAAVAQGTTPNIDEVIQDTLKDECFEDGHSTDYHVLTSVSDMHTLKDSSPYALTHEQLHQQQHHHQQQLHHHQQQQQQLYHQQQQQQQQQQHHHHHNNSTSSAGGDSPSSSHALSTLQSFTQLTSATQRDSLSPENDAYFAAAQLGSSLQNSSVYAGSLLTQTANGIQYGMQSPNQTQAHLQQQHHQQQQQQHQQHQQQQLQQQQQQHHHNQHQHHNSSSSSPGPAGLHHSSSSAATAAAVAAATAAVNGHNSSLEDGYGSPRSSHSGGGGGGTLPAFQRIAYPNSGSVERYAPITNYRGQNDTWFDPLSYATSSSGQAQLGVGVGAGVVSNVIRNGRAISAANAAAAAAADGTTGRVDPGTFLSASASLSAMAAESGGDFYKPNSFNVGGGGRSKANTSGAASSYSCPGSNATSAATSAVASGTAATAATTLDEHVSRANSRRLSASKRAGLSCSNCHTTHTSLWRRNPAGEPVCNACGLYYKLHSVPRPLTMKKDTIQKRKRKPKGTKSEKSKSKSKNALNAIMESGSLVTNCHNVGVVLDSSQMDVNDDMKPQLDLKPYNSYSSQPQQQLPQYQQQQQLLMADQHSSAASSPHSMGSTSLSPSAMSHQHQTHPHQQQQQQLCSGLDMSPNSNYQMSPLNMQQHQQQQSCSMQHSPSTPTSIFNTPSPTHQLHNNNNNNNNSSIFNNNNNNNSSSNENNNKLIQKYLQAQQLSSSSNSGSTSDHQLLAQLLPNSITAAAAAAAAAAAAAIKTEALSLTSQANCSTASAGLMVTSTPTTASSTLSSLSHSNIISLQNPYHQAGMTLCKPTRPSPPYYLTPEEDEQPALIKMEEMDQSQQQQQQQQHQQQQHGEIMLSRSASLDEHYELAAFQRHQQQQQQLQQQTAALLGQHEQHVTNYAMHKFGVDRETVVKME

binding [1]: binds
B1: GATA transcription factor Serpent (Srp), yeast two-hybrid prey (protein, UniProt P52172 1-1264)
chain: MTKTTKPKEKAAAGGAVIGSGSGLGSVTKAGGGSLLSNAADSKIRTAKSNNNKRQAGRAATALAATTTASALAATTTAGATGSNAAANETEIAIETENGEAATPTAAATAAAANLSSLESARSQALTSVVSETARQAVTTANASATSTSTVTAATEIATATASDTAATSEAAIDDDPSAINTNNNNNNSKAQNDASESVKTKVISYHQSEDQQQQQQQQAQIYEQQQQFLSQQLISHHQQEQHQQAQQQQHQQVVQEQHQASWLAYDLTSGSAAAAAAAAAAASHPHLFGQFSYPPSHHTPTQLYEHYPSTDPIMRNNFAFYSVYTGGGGGVGVGMTSHEHLAAAAAAAAAVAQGTTPNIDEVIQDTLKDECFEDGHSTDYHVLTSVSDMHTLKDSSPYALTHEQLHQQQHHHQQQLHHHQQQQQQLYHQQQQQQQQQQHHHHHNNSTSSAGGDSPSSSHALSTLQSFTQLTSATQRDSLSPENDAYFAAAQLGSSLQNSSVYAGSLLTQTANGIQYGMQSPNQTQAHLQQQHHQQQQQQHQQHQQQQLQQQQQQHHHNQHQHHNSSSSSPGPAGLHHSSSSAATAAAVAAATAAVNGHNSSLEDGYGSPRSSHSGGGGGGTLPAFQRIAYPNSGSVERYAPITNYRGQNDTWFDPLSYATSSSGQAQLGVGVGAGVVSNVIRNGRAISAANAAAAAAADGTTGRVDPGTFLSASASLSAMAAESGGDFYKPNSFNVGGGGRSKANTSGAASSYSCPGSNATSAATSAVASGTAATAATTLDEHVSRANSRRLSASKRAGLSCSNCHTTHTSLWRRNPAGEPVCNACGLYYKLHSVPRPLTMKKDTIQKRKRKPKGTKSEKSKSKSKNALNAIMESGSLVTNCHNVGVVLDSSQMDVNDDMKPQLDLKPYNSYSSQPQQQLPQYQQQQQLLMADQHSSAASSPHSMGSTSLSPSAMSHQHQTHPHQQQQQQLCSGLDMSPNSNYQMSPLNMQQHQQQQSCSMQHSPSTPTSIFNTPSPTHQLHNNNNNNNNSSIFNNNNNNNSSSNENNNKLIQKYLQAQQLSSSSNSGSTSDHQLLAQLLPNSITAAAAAAAAAAAAAIKTEALSLTSQANCSTASAGLMVTSTPTTASSTLSSLSHSNIISLQNPYHQAGMTLCKPTRPSPPYYLTPEEDEQPALIKMEEMDQSQQQQQQQQHQQQQHGEIMLSRSASLDEHYELAAFQRHQQQQQQLQQQTAALLGQHEQHVTNYAMHKFGVDRETVVKME

binding [2]: binds
B2: HA-Srp (protein, UniProt P52172 1-1264)
chain: MTKTTKPKEKAAAGGAVIGSGSGLGSVTKAGGGSLLSNAADSKIRTAKSNNNKRQAGRAATALAATTTASALAATTTAGATGSNAAANETEIAIETENGEAATPTAAATAAAANLSSLESARSQALTSVVSETARQAVTTANASATSTSTVTAATEIATATASDTAATSEAAIDDDPSAINTNNNNNNSKAQNDASESVKTKVISYHQSEDQQQQQQQQAQIYEQQQQFLSQQLISHHQQEQHQQAQQQQHQQVVQEQHQASWLAYDLTSGSAAAAAAAAAAASHPHLFGQFSYPPSHHTPTQLYEHYPSTDPIMRNNFAFYSVYTGGGGGVGVGMTSHEHLAAAAAAAAAVAQGTTPNIDEVIQDTLKDECFEDGHSTDYHVLTSVSDMHTLKDSSPYALTHEQLHQQQHHHQQQLHHHQQQQQQLYHQQQQQQQQQQHHHHHNNSTSSAGGDSPSSSHALSTLQSFTQLTSATQRDSLSPENDAYFAAAQLGSSLQNSSVYAGSLLTQTANGIQYGMQSPNQTQAHLQQQHHQQQQQQHQQHQQQQLQQQQQQHHHNQHQHHNSSSSSPGPAGLHHSSSSAATAAAVAAATAAVNGHNSSLEDGYGSPRSSHSGGGGGGTLPAFQRIAYPNSGSVERYAPITNYRGQNDTWFDPLSYATSSSGQAQLGVGVGAGVVSNVIRNGRAISAANAAAAAAADGTTGRVDPGTFLSASASLSAMAAESGGDFYKPNSFNVGGGGRSKANTSGAASSYSCPGSNATSAATSAVASGTAATAATTLDEHVSRANSRRLSASKRAGLSCSNCHTTHTSLWRRNPAGEPVCNACGLYYKLHSVPRPLTMKKDTIQKRKRKPKGTKSEKSKSKSKNALNAIMESGSLVTNCHNVGVVLDSSQMDVNDDMKPQLDLKPYNSYSSQPQQQLPQYQQQQQLLMADQHSSAASSPHSMGSTSLSPSAMSHQHQTHPHQQQQQQLCSGLDMSPNSNYQMSPLNMQQHQQQQSCSMQHSPSTPTSIFNTPSPTHQLHNNNNNNNNSSIFNNNNNNNSSSNENNNKLIQKYLQAQQLSSSSNSGSTSDHQLLAQLLPNSITAAAAAAAAAAAAAIKTEALSLTSQANCSTASAGLMVTSTPTTASSTLSSLSHSNIISLQNPYHQAGMTLCKPTRPSPPYYLTPEEDEQPALIKMEEMDQSQQQQQQQQHQQQQHGEIMLSRSASLDEHYELAAFQRHQQQQQQLQQQTAALLGQHEQHVTNYAMHKFGVDRETVVKME

binding [3]: binds
B3: Bfc-6XHis (protein, UniProt Q9W0I5 1-251)
chain: MRMDKSEKRSNLADNFLYMLEFMVDDLLITRPNLCAPEEYPTCTEITFRSVFLNIRDRENGSCVNPCSPKCGKCTLFTLESPITDEDVMHIHVYKKRTESCKFLLGLTELPMKPIFDRVKKEFYSQNINWESNVESHLSRMPKLRGPCKKANDCVCYERNRERREQWCPTSELTKRMLPLFNLCKMQTGNIVLILRLVCNGPSVVSSFPVQRPVCKDPCNCCCPCPPTWPAPCSSPFDPCDPCKTVPAKKT
